In patent publication US7985740B2, “Purine derivatives as agonists of the adenosine A2A receptor” (Glaxo Group Limited, priority 2005, dated 2011):
Some results were stated once for a whole list of compounds, not compound by compound. For part of these data: For at least one compound, name, drawing or mass did not settle the structure.

Sequences of proteins named here, by UniProt entry; tags and fusion partners are left off. Residues count along the entry.
UniProt P02768, 25-609: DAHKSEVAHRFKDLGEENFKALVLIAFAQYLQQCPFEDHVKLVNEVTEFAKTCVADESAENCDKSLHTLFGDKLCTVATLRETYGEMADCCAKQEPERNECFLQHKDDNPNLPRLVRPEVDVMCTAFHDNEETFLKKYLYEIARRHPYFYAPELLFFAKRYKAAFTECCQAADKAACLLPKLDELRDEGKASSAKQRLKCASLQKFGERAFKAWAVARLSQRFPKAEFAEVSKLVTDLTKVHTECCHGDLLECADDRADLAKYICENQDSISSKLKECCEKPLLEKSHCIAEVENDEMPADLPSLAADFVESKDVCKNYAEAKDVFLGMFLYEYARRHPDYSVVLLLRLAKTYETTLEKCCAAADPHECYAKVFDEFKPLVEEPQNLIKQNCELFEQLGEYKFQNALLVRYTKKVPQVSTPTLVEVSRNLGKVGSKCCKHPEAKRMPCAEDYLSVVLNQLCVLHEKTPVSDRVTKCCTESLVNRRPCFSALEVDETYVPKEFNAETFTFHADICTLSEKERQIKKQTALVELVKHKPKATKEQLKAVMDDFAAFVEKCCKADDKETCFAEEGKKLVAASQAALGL

Columns and labels:
[1] = target: T1, Human Serum Albumin (HSA) (Homo sapiens, UniProt P02768); assay: Human serum albumin (HSA) binding, immobilised HSA HPLC column; assay type: in vitro ADME; conditions: pH 7.4
T1 construct: purchased Chromtech (Cheshire, UK)
Protocol: Instrument: Agilent HP1100 HPLC instruments were used throughout.
HPLC columns: Chromtech Immobilised HSA HPLC column 50×3 mm was purchased from Chromtech (Cheshire, UK).
Mobile phase and detection: The mobile phase A was 50 mM pH 7.4 ammonium acetate solution, while mobile phase B was 2-Propanol (HPLC grade, Runcorn, UK). The mobile phase flow rate was 1.8 ml/min. The column temperature was kept at 30° C. The gradient profile and run time were the same with each column, the linear gradient from 0 to 30% 2-propanol was applied from 0 to 3 minutes. From 3 to 5 minutes, the mobile phase composition was constant 30% 2-propanol and 70% 50-mM ammonium acetate. From 5 min to 5.2 min the mobile phase composition was change to 100% ammonium acetate buffer only and remained the same until the end of the run. Each separation was stopped after 6 minutes. The column temperature was kept at 30° C.
Detection: Chromatograms were recorded at 230 and 254 nm by a diode array UV absorption detector at room temperature.

neutrophilia = assay: Inhibition of LPS-induced lung neutrophilia in rats, intratracheal dosing; assay type: in vivo; conditions: rat
Protocol: Rats are lightly anaesthetized (isofluorane in oxygen) and vehicle or test substance administered intratracheally using a cannula placed trans-orally (200 μl). Following intratracheal administration, rats are returned to their cages and allowed free access to both food and water. Thirty min later, rats are placed in a perspex box and exposed to aerosolized lipopolysaccharide (LPS) (0.15 mg/ml, serotype 0127:B8) for 15 min (Devilbiss nebuliser) at a flow rate of 15 ml/min. Animals are killed 4 h later with pentobarbital (250 mg/kg i.p.). The lungs are lavaged using 3 aliquots (5 ml) of phosphate-buffered saline (Sigma catalogue no. P3813, pH 7.4) containing heparin (10 units/ml); recovered cells are pooled (pooled volume of recovered fluid will be recorded) and centrifuged (1300 rpm for 7 min). The supernatant is removed by aspiration and the cell pellet resuspended in 1 ml phosphate-buffered saline. Total cells are counted (Sysmex Microcell Counter F-500, TOA Medical Electronics Ltd., Japan). Smears are made by diluting recovered fluid (to approximately 10^6 cells/ml) and spinning an aliquot (100 μl) in a centrifuge (Cytospin, Shandon, UK). Smears are air dried, fixed using a solution of methanol for 10 s and stained with buffered eosin (10 s) and methylene blue/Azur 1 (5 s) (Speedy-Diff, ClinTech Ltd, Essex, UK) in order to differentiate eosinophils, neutrophils, macrophages and lymphocytes. A total of 300 cells per smear are counted by light microscopy under oil immersion (×1000).

[2] = target: T2, human adenosine A2A receptor (Homo sapiens, UniProt P29274); assay: DiscoveRx cAMP agonist assay in transfected CHO cells, A2A; assay type: cell-based; conditions: activity expressed as ratio to NECA
T2 construct: expressed in transfected cells; host or cells: CHO cells

[3] = intratracheal, 100 ug/kg, aerosolized LPS, lavage 4 h later
[4] = retested at 30 ug/kg, similar method

SMILES	HSA binding [1]	inhibition of neutrophilia (neutrophilia; [3]) [%]	inhibition of neutrophilia (neutrophilia; [4]) [%]	activity at the A2A receptor relative to NECA [2]
CCn1nnc([C@H]2O[C@@H](n3cnc4c(N[C@H]5CC[C@H](Nc6nc(NCCc7c[nH]cn7)nc7[nH]cnc67)CC5)nc(NCCc5c[nH]cn5)nc43)[C@H](O)[C@@H]2O)n1 [Example 1, (2R,3S,4R,5R)-2-(2-Ethyl-2H-tetrazol-5-yl)-5-[2-{[2-(1H-imidazol-4-yl)ethyl]amino}-6-({trans-4-[(2-{[2-(1H-imidazol-4-yl)ethyl]amino]-1H-purin-6-yl)amino]cyclohexyl}amino)-9H-purin-9-yl]tetrahydro-3,4-furandiol, triformate]	greater than 90%	> 50	–	–
CCn1nnc([C@H]2O[C@@H](n3cnc4c(N[C@H]5CC[C@H](Nc6nc(NCCc7cn(C)cn7)nc7[nH]cnc67)CC5)nc(NCCc5cn(C)cn5)nc43)[C@H](O)[C@@H]2O)n1 [Example 2, (2R,3S,4R,5R)-2-(2-ethyl-2H-tetrazol-5-yl)-5-[2-{[2-(1-methyl-1H-imidazol-4-yl)ethyl]amino}-6-({trans-4-[(2-{[2-(1-methyl-1H-imidazol-4-yl)ethyl]amino}-1H-purin-6-yl)amino]cyclohexyl}amino)-9H-purin-9-yl]tetrahydro-3,4-furandiol, diformate]	greater than 90%	> 50	≤ 50	–
CCn1nnc([C@H]2O[C@@H](n3cnc4c(N[C@H]5CC[C@H](Nc6[nH]c(NCCc7nc[nH]c7C)nc7ncnc6-7)CC5)nc(NCCc5nc[nH]c5C)nc43)[C@H](O)[C@@H]2O)n1.O=CO.O=CO.O=CO [Example 3, (2R,3S,4R,5R)-2-(2-ethyl-2H-tetrazol-5-yl)-5-[2-{[2-(5-methyl-1H-imidazol-4-yl)ethyl]amino}-6-({trans-4-[(2-{[2-(5-methyl-1H-imidazol-4-yl)ethyl]amino}-1H-purin-6-yl)amino]cyclohexyl}amino)-9H-purin-9-yl]tetrahydro-3,4-furandiol, triformate]	greater than 90%	> 50	–	–
CCn1nnc([C@H]2O[C@@H](n3cnc4c(N[C@H]5CC[C@H](Nc6nc(NCCCCN7CCCC7)nc7[nH]cnc67)CC5)nc(NCCCCN5CCCC5)nc43)[C@H](O)[C@@H]2O)n1 [Example 4, (2R,3S,4R,5R)-2-(2-ethyl-2H-tetrazol-5-yl)-5-[2-{[4-(1-pyrrolidinyl)butyl]amino}-6-({trans-4-[(2-{[4-(1-pyrrolidinyl)butyl]amino}-1H-purin-6-yl)amino]cyclohexyl}amino)-9H-purin-9-yl]tetrahydro-3,4-furandiol, triformate]	greater than 90%	> 50	–	–
CCn1nnc([C@H]2O[C@@H](n3cnc4c(N[C@H]5CC[C@H](Nc6nc(N[C@H]7CC[C@H](N)CC7)nc7[nH]cnc67)CC5)nc(N[C@H]5CC[C@H](N)CC5)nc43)[C@@H](O)[C@H]2O)n1.O=CO.O=CO.O=CO [Example 5, (2R,3S,4R,5R)-2-(2-[(trans-4-aminocyclohexyl)amino]-6-{[trans-4-({2-[(trans-4-aminocyclohexyl)amino]-9H-purin-6-yl}amino)cyclohexyl]amino}-9H-purin-9-yl)-5-(2-ethyl-2H-tetrazol-5-yl)tetrahydro-3,4-furandiol, triformate]	greater than 90%	–	–	–
CCn1nnc([C@H]2O[C@@H](n3cnc4c(N[C@H]5CC[C@H](Nc6ccnc(NCCc7c[nH]cn7)n6)CC5)nc(NCCc5c[nH]cn5)nc43)[C@H](O)[C@@H]2O)n1 [Example 6, (2R,3S,4R,5R)-2-(2-Ethyl-2H-tetrazol-5-yl)-5-[2-{[2-(1H-imidazol-4-yl)ethyl]amino}-6-({trans-4-[(2-{[2-(1H-imidazol-4-yl)ethyl]amino}-4-pyrimidinyl)amino]cyclohexyl}amino)-9H-purin-9-yl]tetrahydro-3,4-furandiol, tetraformate]	greater than 90%	> 50	–	–
CCn1nnc([C@H]2O[C@@H](n3cnc4c(N[C@H]5CC[C@H](Nc6ccnc(NCCc7cn(C)cn7)n6)CC5)nc(NCCc5cn(C)cn5)nc43)[C@H](O)[C@@H]2O)n1 [Example 7, (2R,3S,4R,5R)-2-(2-ethyl-2H-tetrazol-5-yl)-5-[2-{[2-(1-methyl-1H-imidazol-4-yl)ethyl]amino}-6-({trans-4-[(2-{[2-(1-methyl-1H-imidazol-4-yl)ethyl]amino}-4-pyrimidinyl)amino]cyclohexyl}-amino)-9H-purin-9-yl]tetrahydro-3,4-furandiol, diformate]	greater than 90%	> 50	≤ 50	–
CCn1nnc(C2OC(n3cnc4c(NC5CCC(Nc6ccnc(NCCc7nc[nH]c7C)n6)CC5)nc(NCCc5nc[nH]c5C)nc43)C(O)C2O)n1.O=CO.O=CO [Example 8, (2R,3S,4R,5R)-2-(2-ethyl-2H-tetrazol-5-yl)-5-[2-{[2-(5-methyl-1H-imidazol-4-yl)ethyl]amino}-6-({trans-4-[(2-{[2-(5-methyl-1H-imidazol-4-yl)ethyl]amino}-4-pyrimidinyl)amino]cyclohexyl}-amino)-9H-purin-9-yl]tetrahydro-3,4-furandiol, diformate]	–	–	–	at least two times that of NECA
CCn1nnc([C@H]2O[C@@H](n3cnc4c(N[C@H]5CC[C@H](Nc6ccnc(NCCCCN7CCCC7)n6)CC5)nc(NCCCCN5CCCC5)nc43)[C@H](O)[C@@H]2O)n1 [Example 9, (2R,3S,4R,5R)-2-(2-ethyl-2H-tetrazol-5-yl)-5-[2-{[4-(1-pyrrolidinyl)butyl]amino}-6-({trans-4-[(2-{[4-(1-pyrrolidinyl)butyl]amino}-4-pyrimidinyl)amino]cyclohexyl}-amino)-9H-purin-9-yl]tetrahydro-3,4-furandiol, tetraformate]	greater than 90%	–	–	–
CCn1nnc([C@H]2O[C@@H](n3cnc4c(N[C@H]5CC[C@H](Nc6ccnc(N[C@H]7CC[C@H](N)CC7)n6)CC5)nc(N[C@H]5CC[C@H](N)CC5)nc43)[C@@H](O)[C@H]2O)n1.O=CO.O=CO.O=CO [Example 10, (2R,3S,4R,5R)-2-(2-[(trans-4-aminocyclohexyl)amino]-6-{[trans-4-({2-[(trans-4-aminocyclohexyl)amino]-4-pyrimidinyl}amino)cyclohexyl]-amino}-9H-purin-9-yl)-5-(2-ethyl-2H-tetrazol-5-yl)tetrahydro-3,4-furandiol, triformate]	greater than 90%	–	–	–
